Measurements published in the supplement of paper PMC8975748.
Where a name gives a salt, the structure may show the parent alone. ± gives the standard deviation of the averaged measurements. The list shows a part of the results. Values are raw readings; no control value is given beside them.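 A single yeast strain with four plasmids, each encoding a fluorescent protein and an amino-acid or uracil biosynthesis gene, seeds the community. Stochastic plasmid loss yields mixed prototroph and auxotroph subpopulations. Fixed cells were counted via automated confocal fluorescence imaging; DMSO-treated wells were the vehicle reference.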

System: Saccharomyces cerevisiae BY4741 SeMeCo community
Experiment: imaged cell count per well (cells); higher = more cells
Conditions: 10 µM; 24 h; SM minimal medium
Method: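 Same SeMeCo high-content imaging drug screen: Selleck FDA-approved drugs at 10 µM, 24 h in SM medium, 384-well plates, 3 replicates.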

| SMILES | imaged cell count per well |
| --- | --- |
| CC(=O)OCC(COC(C)=O)OC(C)=O [Triacetin] | 25800 ± 2500 |
| CC(=O)Oc1ccc(C(=C2CCCCC2)c2ccc(OC(C)=O)cc2)cc1 [Cyclofenil] | 20600 ± 5700 |
| CCC[C@@H]1C[C@@H](C(=O)N[C@@H]([C@H]2O[C@H](SC)[C@H](O)[C@@H](O)[C@H]2O)[C@H](C)Cl)N(C)C1 [Clindamycin HCl] | 19400 ± 2100 |
| Cc1cc(=O)n(-c2ccccc2)n1C [Antipyrine] | 23200 ± 2600 |
| CC[C@@H](CO)NCCN[C@@H](CC)CO [Ethambutol 2HCl] | 22100 ± 2700 |
| CCN1CC(CCN2CCOCC2)C(c2ccccc2)(c2ccccc2)C1=O (stereo not drawn) [Doxapram HCl] | 24000 ± 4200 |
| CO[C@@H]1[C@@H](O[C@@H]2O[C@H](C)[C@@H](O[C@H]3C[C@@](C)(O)[C@@H](OC(=O)CC(C)C)[C@H](C)O3)[C@H](N(C)C)[C@H]2O)[C@@H](CC=O)C[C@@H](C)[C@@H](O)/C=C/C=C/C[C@@H](C)OC(=O)C[C@H]1O [Kitasamycin] | 24500 ± 2500 |
| OCCN(CCO)c1nc(N2CCCCC2)c2nc(N(CCO)CCO)nc(N3CCCCC3)c2n1 [Dipyridamole] | 27200 ± 4100 |
| CCCCOc1ccc(C(=O)CCN2CCCCC2)cc1 [Dyclonine HCl] | 29300 ± 5100 |
| C[n+]1ccccc1/C=N/O [Pralidoxime chloride] | 27000 ± 1800 |
| CC1=C(C(=O)O)N2C(=O)[C@@H](NC(=O)[C@H](N)C3=CCC=CC3)[C@H]2SC1 [Cephradine monohydrate] | 23800 ± 4100 |
| CCC[C@@H]1C[C@@H](C(=O)N[C@@H]([C@H]2O[C@H](SC)[C@H](O)[C@@H](O)[C@H]2O)[C@@H](C)O)N(C)C1 [Lincomycin Hydrochloride Monohydrate] | 22300 ± 5800 |
| COc1cc([C@@H]2c3cc4c(cc3[C@@H](O[C@@H]3O[C@@H]5CO[C@@H](C)O[C@H]5[C@H](O)[C@H]3O)[C@H]3COC(=O)[C@H]23)OCO4)cc(OC)c1O [Etoposide] | 23600 ± 2000 |
| CCCCOc1ccc(CC(=O)NO)cc1 [Bufexamac] | 23100 ± 4000 |
| CC[C@@H]1C(=O)OC[C@@H]1Cc1cncn1C [Pilocarpine HCl] | 19200 ± 8600 |
| Cc1cccc(C)c1NC(=O)C1CCCCN1C (stereo not drawn) [Mepivacaine HCl] | 23100 ± 9400 |
| O=C1C(CC[S+]([O-])c2ccccc2)C(=O)N(c2ccccc2)N1c1ccccc1 (racemic) [(+/-)-Sulfinpyrazone] | 20300 ± 6800 |
| CC(C)NC(=N)NC(=N)Nc1ccc(Cl)cc1 [Proguanil] | 24400 ± 3000 |
| COc1ccnc(C[S+]([O-])c2nc3cc(-n4cccc4)ccc3[nH]2)c1C (stereo not drawn) [Ilaprazole] | 22500 ± 9600 |
| CCCCCCCCCC(=O)N[C@@H](Cc1c[nH]c2ccccc12)C(=O)N[C@H](CC(N)=O)C(=O)N[C@@H](CC(=O)O)C(=O)N[C@@H]1C(=O)NCC(=O)N[C@@H](CCCN)C(=O)N[C@@H](CC(=O)O)C(=O)N[C@H](C)C(=O)N[C@@H](CC(=O)O)C(=O)NCC(=O)N[C@H](CO)C(=O)N[C@@H]([C@H](C)CC(=O)O)C(=O)N[C@@H](CC(=O)c2ccccc2N)C(=O)O[C@@H]1C [Daptomycin] | 33100 ± 5400 |
| CC[C@H]1OC(=O)[C@H](C)[C@@H](O[C@H]2C[C@@](C)(OC)[C@@H](O)[C@H](C)O2)[C@H](C)[C@@H](O[C@@H]2O[C@H](C)C[C@H](N(C)C)[C@H]2O)[C@](C)(O)C[C@@H](C)CN(C)[C@H](C)[C@@H](O)[C@]1(C)O [Azithromycin] | 21800 ± 980 |
| CC(=O)N[C@H]1[C@H]([C@H](O)[C@H](O)CO)OC(C(=O)O)=C[C@@H]1NC(=N)N [Zanamivir] | 26700 ± 2000 |
| CC[C@H](C)C(=O)O[C@H]1C[C@H](O)C=C2C=C[C@H](C)[C@H](CC[C@@H](O)C[C@@H](O)CC(=O)O)[C@H]21 [Pravastatin sodium] | 15900 ± 8900 |
| Cc1ccsc1/C=C/C1=NCCCN1C [Morantel tartrate] | 24700 ± 1300 |
| CC/C(=C(/CC)c1ccc(O)cc1)c1ccc(O)cc1 [Diethylstilbestrol] | 22100 ± 2300 |
| Nc1ccc(S(=O)(=O)Nc2ncccn2)cc1 [Sodium sulfadiazine] | 24800 ± 3000 |
| CN(Cc1cnc2nc(N)nc(N)c2n1)c1ccc(C(=O)N[C@@H](CCC(=O)O)C(=O)O)cc1 [Methotrexate disodium] | 3520 ± 460 |
| CC[C@H](C)C[C@H](C)CCCCCCCCC(=O)N[C@H]1C[C@@H](O)[C@@H](NCCN)NC(=O)[C@@H]2[C@@H](O)CCN2C(=O)[C@H]([C@H](O)CCN)NC(=O)[C@H]([C@H](O)[C@@H](O)c2ccc(O)cc2)NC(=O)[C@@H]2C[C@@H](O)CN2C(=O)[C@H]([C@@H](C)O)NC1=O [Caspofungin Acetate] | 2330 ± 370 |

Part of the list above, field by field.
CC(=O)N[C@H]1[C@H]([C@H](O)[C@H](O)CO)OC(C(=O)O)=C[C@@H]1NC(=N)N [Zanamivir]
  imaged cell count per well: 26700 ± 2000
CC[C@H](C)C(=O)O[C@H]1C[C@H](O)C=C2C=C[C@H](C)[C@H](CC[C@@H](O)C[C@@H](O)CC(=O)O)[C@H]21 [Pravastatin sodium]
  imaged cell count per well: 15900 ± 8900
